# Percent effect of library compounds

By UniProt entry, the sequences of proteins in these tests, tags left out. Residues count along the entry.
UniProt Q8IDJ8, 1-583: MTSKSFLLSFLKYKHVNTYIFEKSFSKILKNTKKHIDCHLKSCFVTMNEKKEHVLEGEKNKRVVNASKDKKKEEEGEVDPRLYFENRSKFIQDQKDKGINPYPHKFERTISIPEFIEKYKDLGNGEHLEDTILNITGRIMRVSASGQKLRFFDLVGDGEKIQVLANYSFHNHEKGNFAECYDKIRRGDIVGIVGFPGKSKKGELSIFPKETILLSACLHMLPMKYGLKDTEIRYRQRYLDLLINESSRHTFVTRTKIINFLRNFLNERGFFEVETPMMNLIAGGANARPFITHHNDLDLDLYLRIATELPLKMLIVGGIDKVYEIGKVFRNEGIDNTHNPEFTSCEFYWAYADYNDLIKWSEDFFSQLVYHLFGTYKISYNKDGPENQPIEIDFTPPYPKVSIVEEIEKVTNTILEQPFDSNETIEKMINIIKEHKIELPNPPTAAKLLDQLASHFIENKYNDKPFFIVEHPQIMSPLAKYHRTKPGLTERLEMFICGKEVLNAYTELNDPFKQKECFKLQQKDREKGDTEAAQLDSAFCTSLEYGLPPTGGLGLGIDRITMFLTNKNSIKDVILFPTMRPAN
UniProt A4I591, 1-473: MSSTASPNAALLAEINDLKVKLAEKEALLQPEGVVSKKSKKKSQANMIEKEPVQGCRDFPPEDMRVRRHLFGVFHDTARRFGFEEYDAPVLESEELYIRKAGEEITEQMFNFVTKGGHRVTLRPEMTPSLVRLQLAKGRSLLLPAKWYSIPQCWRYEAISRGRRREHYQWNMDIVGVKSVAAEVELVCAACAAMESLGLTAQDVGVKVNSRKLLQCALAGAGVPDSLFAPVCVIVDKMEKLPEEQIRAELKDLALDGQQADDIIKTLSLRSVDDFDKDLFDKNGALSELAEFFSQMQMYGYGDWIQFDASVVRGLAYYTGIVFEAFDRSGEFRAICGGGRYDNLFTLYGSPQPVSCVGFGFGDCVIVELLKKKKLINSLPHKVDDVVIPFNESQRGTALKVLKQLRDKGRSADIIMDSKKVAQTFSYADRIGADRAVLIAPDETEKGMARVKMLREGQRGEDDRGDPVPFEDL
UniProt Q4DA54, 1-478: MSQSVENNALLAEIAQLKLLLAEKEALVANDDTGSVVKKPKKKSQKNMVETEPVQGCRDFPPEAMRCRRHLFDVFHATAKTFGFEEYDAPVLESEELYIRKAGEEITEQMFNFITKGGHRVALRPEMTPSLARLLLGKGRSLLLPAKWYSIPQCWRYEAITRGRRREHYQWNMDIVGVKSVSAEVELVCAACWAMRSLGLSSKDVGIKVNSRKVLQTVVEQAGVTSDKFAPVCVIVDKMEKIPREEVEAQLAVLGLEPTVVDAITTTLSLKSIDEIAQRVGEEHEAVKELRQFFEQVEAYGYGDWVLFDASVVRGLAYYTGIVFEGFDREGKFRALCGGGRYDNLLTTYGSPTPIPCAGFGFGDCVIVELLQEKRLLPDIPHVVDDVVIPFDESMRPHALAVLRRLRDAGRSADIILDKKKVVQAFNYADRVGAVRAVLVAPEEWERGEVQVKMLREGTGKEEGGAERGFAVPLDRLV
UniProt P9WPC5, whole entry: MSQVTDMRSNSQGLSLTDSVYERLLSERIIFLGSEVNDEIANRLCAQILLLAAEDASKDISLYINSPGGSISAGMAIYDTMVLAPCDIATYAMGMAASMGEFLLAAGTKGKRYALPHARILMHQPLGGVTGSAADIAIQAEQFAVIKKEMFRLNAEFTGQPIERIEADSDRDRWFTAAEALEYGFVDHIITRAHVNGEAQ
UniProt P9WPC3, whole entry partner: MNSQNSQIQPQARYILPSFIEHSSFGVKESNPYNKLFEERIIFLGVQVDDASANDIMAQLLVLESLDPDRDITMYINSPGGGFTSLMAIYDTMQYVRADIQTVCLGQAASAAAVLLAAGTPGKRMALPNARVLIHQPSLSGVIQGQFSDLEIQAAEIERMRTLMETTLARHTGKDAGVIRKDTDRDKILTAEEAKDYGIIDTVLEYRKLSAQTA

PfKRS1: 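Enzyme assay of the cytosolic lysyl-tRNA synthetase in 384-well plates, read by luminescence. Target: Lysine-tRNA ligase, Plasmodium falciparum 3D7 (UniProt Q8IDJ8). Compounds at 30 µM. Direction is inferred from only a few compounds that gave an IC50; most scored high, so higher reads as stronger inhibition. Size under these conditions: about 69,000 compounds, about 49 of them at 50% or above in at least one test.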
LiHisRS: 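Enzyme assay of histidyl-tRNA synthetase; the read-out is not stated. Target: Histidine-tRNA ligase, Leishmania infantum (UniProt A4I591). Compounds at 30 µM. Higher reads as stronger inhibition (inferred: compounds with an IC50 in retests scored well above the rest). The assay is labelled LdHisRS but filed under L. infantum. Size under these conditions: about 69,000 compounds, about 410 of them at 50% or above in at least one test.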
TcHisRS: 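Enzyme assay of histidyl-tRNA synthetase; the read-out is not stated. Target: Histidine-tRNA ligase, Trypanosoma cruzi CL Brener (UniProt Q4DA54). Tested at 30 µM. The record gives no direction; compounds that gave an IC50 in retests scored well above the rest, so higher reads as stronger inhibition. Size under these conditions: about 69,000 compounds, about 31 of them at 50% or above in at least one test.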
Leishmania in macrophages: 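Cell assay of Leishmania donovani living inside macrophages; the read-out is not stated. Concentration: 30 µM. Direction is inferred from retests: higher values go with stronger inhibition. About 69,000 compounds were tested under these conditions; 1.5% (about 1,000) showed 50% or more at least once.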
ClpP1P2: 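ClpP1P2, Mycobacterium tuberculosis (UniProt P9WPC5 and UniProt P9WPC3). Protease assay of ClpP1P2, read by the AMC dye that it sets free. Concentration: 50 µM. Higher reads as stronger inhibition, judged from the few compounds that gave an IC50. Most other retested compounds had strongly negative values. About 69,000 compounds were tested under these conditions; 0.015% (about 10) showed 50% or more at least once.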

Results are given as percent effect.
The controls that fix the scale are not given in the record; negative values are as filed.
Compounds were drawn at random from those tested, without regard to their results.
Two or more numbers in one place are separate tests of the same structure; such repeats can differ widely.

COc1cc(C(=O)N2CCC(c3n[nH]c(C)n3)CC2)cc(OC)c1C read PfKRS1: -1.877%; LiHisRS: 2.609%; TcHisRS: 1.127%; Leishmania in macrophages: 9.527%; ClpP1P2: -2.518%.
CCc1c(C(=O)NCC2CCS(=O)(=O)C2)cnn1-c1ccc(C)cc1 (stereo not given) read PfKRS1: 1.718%; LiHisRS: -28.09%; TcHisRS: -0.7519%; Leishmania in macrophages: 39.8%; ClpP1P2: 6.295%.
COc1cn(CC(N)=O)c(CSc2nc(C)cc(C)n2)cc1=O read PfKRS1: -7.134%; LiHisRS: 24.39%; TcHisRS: 4.327%; Leishmania in macrophages: -2.719%; ClpP1P2: 5.353%.
Cc1ncsc1C(=O)N(Cc1ccccn1)C1CC1 read PfKRS1: -0.5421%; LiHisRS: -0.9259%; TcHisRS: 0.8798%; Leishmania in macrophages: -27.83%; ClpP1P2: 5.603%.
Cc1ccc2[nH]c(=O)c(CNCCCN3CCOCC3)cc2c1 read PfKRS1: 1.319%; LiHisRS: -11.46%; TcHisRS: 6.383%; Leishmania in macrophages: -10.41%; ClpP1P2: -1.2%.
COc1ccc2c(ccn2CCC(=O)Nc2nc[nH]n2)c1 read PfKRS1: 7.11%; LiHisRS: 21.74%; TcHisRS: 8.911%; Leishmania in macrophages: 22.67%; ClpP1P2: -6.811%.
O=S(=O)(NC1CCCN(c2ncccn2)C1)N1CCCCCC1 (stereo not given) read PfKRS1: 2.174%; LiHisRS: 9.677%; TcHisRS: 6.548%; Leishmania in macrophages: -6.738%; ClpP1P2: -11.26%.
CCC[C@H]1CN(S(=O)(=O)c2ccc(CC)s2)C[C@@H]1N read PfKRS1: 1.822%; LiHisRS: 29.58%; TcHisRS: 0.6369%; Leishmania in macrophages: -12.07%; ClpP1P2: -2.316%.
[H][C@]12CC[C@@]3(N=C(CC)N(CC(C)C)C3=O)[C@@]1([H])CN(CC(=O)N(C)C)C2 read Leishmania in macrophages: -17.26%.
[H][C@@]12CCCO[C@]1([H])[C@H](N1CCCC1=O)CN2Cc1cnn(C)c1 read Leishmania in macrophages: -4.725% & 9.924%.
CN(C)C(=O)c1cnc2n1CCN(Cc1ccc3c(c1)OCO3)C2.O=C(O)C(F)(F)F read Leishmania in macrophages: -3.136%.
O=C(O)C(F)(F)F.c1ccc(N2CCOC3(CCCN(c4nncs4)C3)C2)nc1 (stereo not given) read Leishmania in macrophages: 6.573%.
[H][C@]12CC[C@@]3(N=C(CC)N(CC)C3=O)[C@@]1([H])CN(S(=O)(=O)CC(C)C)C2 read Leishmania in macrophages: -0.9792% & -2.178%.
O=c1ccc2c(n1CC1CC1)CCC(NCc1cccs1)C2 (stereo not given) read PfKRS1: 3.621%; LiHisRS: 11.88%; TcHisRS: 16.58%; ClpP1P2: -3.459%.
CS(=O)(=O)N1CCO[C@@H]2CN(C(=O)c3cccnc3)C[C@@H]2C1 read PfKRS1: 4.22%; LiHisRS: 15.09%; TcHisRS: 5.556%; ClpP1P2: -6.278%.
N#CC1(C(=O)N2CCCN(c3nccs3)CC2)CCCCC1 read PfKRS1: 0.203%; LiHisRS: 8.929%; TcHisRS: 2.367%; Leishmania in macrophages: -3.733%; ClpP1P2: -17.49%.
COc1ccc(CNCc2cc(Br)c3c(c2)OCO3)cc1 read PfKRS1: -4.126%; LiHisRS: 12.04%; TcHisRS: 3.743%; Leishmania in macrophages: 47.31%; ClpP1P2: -7.666%.
COc1ccc(N2CCN(C(=O)COc3c(C)occc3=O)CC2)cc1 read PfKRS1: 2.883%; LiHisRS: 15.79%; TcHisRS: 4.878%; Leishmania in macrophages: 13.53% & 17.13%; ClpP1P2: -7.837%.

Repeated from the top, 2 entries:

- COc1cc(C(=O)N2CCC(c3n[nH]c(C)n3)CC2)cc(OC)c1C : PfKRS1: -1.877%; LiHisRS: 2.609%; TcHisRS: 1.127%; Leishmania in macrophages: 9.527%; ClpP1P2: -2.518%
- CCc1c(C(=O)NCC2CCS(=O)(=O)C2)cnn1-c1ccc(C)cc1 (stereo not given) : PfKRS1: 1.718%; LiHisRS: -28.09%; TcHisRS: -0.7519%; Leishmania in macrophages: 39.8%; ClpP1P2: 6.295%

From ChEMBL document CHEMBL3988442, “University of Dundee, Small-Polar-MMV Screening Library” (2021).